Assay results published in PubChem BioAssay AID270 (DTP/NCI, 2004).
The list does not hold the whole screen: it is rich in T/C values a quarter to a half above the control, in often repeated tests (any T/C) and in doses without a T/C. Further doses and runs are listed elsewhere. T/C: endpoint of the treated group in % of that of the vehicle group. Some T/C values carry the count of animals alive at the toxicity check (mostly the fifth day); without a count, all were alive then. Schedules are NCI's codes, taken here to give the interval after Q, in days (D) or hours (H), and the number of doses after X. Some entries give survivors of the animals treated and no T/C: the source holds a T/C of zero for them, seemingly a mark for toxic or unscored doses. Some survivor counts are full or nearly so, which does not show that the dose was tolerated: survival well below the control is almost never listed, so the zero probably covers shortened survival too. Survivors were counted at the toxicity check, usually on the fifth day, unless a day is given; later deaths do not show. Some entries were tested several times; their values stand side by side, smallest first. Where survival is the endpoint, the PubChem record calls one and a half times the control and up active, and a quarter to a half above the control has no call in these data; cut-offs in other NCI protocols can differ. Where a SMILES comes first, the peptide text is derived from it. [ ]: non-standard residue; d: D form. The star is where a group is joined. ξ: configuration not given here. ξAsp(βξ-Me) = CC(C(=O)O)C(N)C(=O)O; X4 = CC(N*)C1NC(=O)C2CCCCN2C1=O; ξAbu(3ξ-NH2) = CC(N)C(N)C(=O)O; X3 = CCC(C)CCC/C=C/CC(=O)*

Test system: BDF1 mice, s.c. Lewis lung carcinoma, T/C %
Experiment: NCI In Vivo Anticancer Drug Screen. Data for tumor model Lewis Lung Carcinoma (subcutaneous) in B6D2F1 (BDF1) mice
Procedure, shortened: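 Transplanted tumors grown in mice; compound vs vehicle dosing; endpoint survival or tumor size; ratio T/C.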

[1] = T/C endpoint: mean tumor weight, dose: 500.0 mg/kg/injection, schedule: Q01DX011 (ip), vehicle: other, higher T/C = larger tumour
[2] = T/C endpoint: median survival time, dose: 50.0 mg/kg/injection, schedule: Q01DX009 (ip), vehicle: Klucel (hydroxypropylcellulose) (HPC), higher T/C = longer survival
[3] = T/C endpoint: median survival time, dose: 100.0 mg/kg/injection, schedule: Q01DX009 (ip), vehicle: Klucel (hydroxypropylcellulose) (HPC), higher T/C = longer survival
[4] = T/C endpoint: median survival time, dose: 100.0 mg/kg/injection, schedule: Q01DX009 (ip), vehicle: saline with Tween-80, higher T/C = longer survival
[5] = T/C endpoint: median survival time, dose: 200.0 mg/kg/injection, schedule: Q01DX009 (ip), vehicle: saline, higher T/C = longer survival
[6] = T/C endpoint: median survival time, dose: 400.0 mg/kg/injection, schedule: Q01DX009 (ip), vehicle: saline, higher T/C = longer survival

CCC(C)CCC/C=C/CC(=O)NC(CC(=O)O)C(=O)NC(C(=O)NC(CC(=O)O)C(=O)NCC(=O)NC(CC(=O)O)C(=O)NCC(=O)NC(C(=O)NC(C(=O)N1CCCC1C(=O)NC(C)C1NC(=O)C2CCCCN2C1=O)C(C)C)C(C)N)C(C)C(=O)O (stereo not drawn) (X3-D[ξAsp(βξ-Me)]DGDG[ξAbu(3ξ-NH2)]VP-X4; configuration not given here)
survivor count (T/C endpoint: median survival time, dose: 400.0 mg/kg/injection, schedule: Q01DX009 (ip), vehicle: saline + alcohol, higher T/C = longer survival): 5 of 10

CC[C@H]1CN2CCc3cc(OC)c(OC)cc3[C@@H]2C[C@@H]1C[C@H]1NCCc2cc(O)c(OC)cc21
survivor count (T/C endpoint: mean tumor weight, dose: 10.0 mg/kg/injection, schedule: Q01DX011 (ip), vehicle: saline, higher T/C = larger tumour): 2 of 6

CC(C)=CC(=O)OCC[N+](C)(C)C
survivor count (T/C endpoint: median survival time, dose: 6.25 mg/kg/injection, schedule: Q01DX009 (ip), vehicle: saline, higher T/C = longer survival): 10 of 10 | survivor count (T/C endpoint: median survival time, dose: 75.0 mg/kg/injection, schedule: Q01DX009 (ip), vehicle: saline, higher T/C = longer survival): 0 of 10 | survivor count (T/C endpoint: median survival time, dose: 150.0 mg/kg/injection, schedule: Q01DX009 (ip), vehicle: saline, higher T/C = longer survival): 0 of 10 | survivor count (T/C endpoint: median survival time, dose: 300.0 mg/kg/injection, schedule: Q01DX009 (ip), vehicle: saline, higher T/C = longer survival): 0 of 10

O=C(O)C(=O)c1ccc(-c2ccccc2)cc1
survivor count (T/C endpoint: mean tumor weight, dose: 110.0 mg/kg/injection, schedule: Q01DX011 (ip), vehicle: methylcellulose (MC), higher T/C = larger tumour): 0 of 7 | survivor count (T/C endpoint: mean tumor weight, dose: 165.0 mg/kg/injection, schedule: Q01DX011 (ip), vehicle: methylcellulose (MC), higher T/C = larger tumour): 0 of 7 | survivor count (T/C endpoint: mean tumor weight, dose: 250.0 mg/kg/injection, schedule: Q01DX011 (ip), vehicle: methylcellulose (MC), higher T/C = larger tumour): 0 of 7 | survivor count (T/C endpoint: mean tumor weight, dose: 375.0 mg/kg/injection, schedule: Q01DX011 (ip), vehicle: methylcellulose (MC), higher T/C = larger tumour): 0 of 7

C[C@]12C=CC(=O)C=C1CC[C@@H]1[C@@H]2[C@@H](O)C[C@@]2(C)[C@H]1CC[C@]2(O)C(=O)CO
survivor count (T/C endpoint: mean tumor weight, dose: 100.0 mg/kg/injection, schedule: Q01DX011 (sc), vehicle: steroid suspending solution, higher T/C = larger tumour): 3 of 6 | survivor count (T/C endpoint: mean tumor weight, dose: 200.0 mg/kg/injection, schedule: Q01DX011 (sc), vehicle: steroid suspending solution, higher T/C = larger tumour): 3 of 6 | survivor count (T/C endpoint: mean tumor weight, dose: 400.0 mg/kg/injection, schedule: Q01DX011 (sc), vehicle: steroid suspending solution, higher T/C = larger tumour): 2 of 6 | survivor count (T/C endpoint: median survival time, dose: 160.0 mg/kg/injection, schedule: Q02DX009 (ip), vehicle: Klucel (hydroxypropylcellulose) (HPC), higher T/C = longer survival): 10 of 10 | survivor count (T/C endpoint: median survival time, dose: 640.0 mg/kg/injection, schedule: Q02DX009 (ip), vehicle: Klucel (hydroxypropylcellulose) (HPC), higher T/C = longer survival): 9 of 10

NS(=O)(=O)c1ncnc2nc[nH]c12
survivor count (T/C endpoint: mean tumor weight, dose: 15.0 mg/kg/injection, schedule: Q01DX011 (ip), vehicle: methylcellulose (MC), higher T/C = larger tumour): 3 of 6 | survivor count (T/C endpoint: mean tumor weight, dose: 125.0 mg/kg/injection, schedule: Q01DX011 (ip), vehicle: other, higher T/C = larger tumour): 0 of 6 | survivor count (T/C endpoint: mean tumor weight, dose: 250.0 mg/kg/injection, schedule: Q01DX011 (ip), vehicle: other, higher T/C = larger tumour): 0 of 6 | survivor count [1]: 0 of 6 | survivor count (T/C endpoint: mean tumor weight, dose: 1000.0 mg/kg/injection, schedule: Q01DX011 (ip), vehicle: other, higher T/C = larger tumour): 0 of 6

C[C@]12C=CC(=O)C=C1CC[C@@H]1[C@@H]2C(=O)C[C@@]2(C)[C@H]1CC[C@]2(O)C(=O)CO
survivor count [2]: 9 of 10 | survivor count (T/C endpoint: median survival time, dose: 50.0 mg/kg/injection, schedule: Q01DX009 (ip), vehicle: saline, higher T/C = longer survival): 8 of 8 | survivor count [3]: 10 of 10 | T/C [4]: 125 % of control | survivor count [4]: 10 of 10 | survivor count (T/C endpoint: median survival time, dose: 100.0 mg/kg/injection, schedule: Q01DX009 (ip), vehicle: saline, higher T/C = longer survival): 8 of 8 | survivor count (T/C endpoint: median survival time, dose: 200.0 mg/kg/injection, schedule: Q01DX009 (ip), vehicle: Klucel (hydroxypropylcellulose) (HPC), higher T/C = longer survival): 10 of 10 | survivor count (T/C endpoint: median survival time, dose: 200.0 mg/kg/injection, schedule: Q01DX009 (ip), vehicle: saline with Tween-80, higher T/C = longer survival): 10 of 10 | survivor count [5]: 8 of 8 | survivor count (T/C endpoint: median survival time, dose: 400.0 mg/kg/injection, schedule: Q01DX009 (ip), vehicle: Klucel (hydroxypropylcellulose) (HPC), higher T/C = longer survival): 10 of 10 | survivor count (T/C endpoint: median survival time, dose: 400.0 mg/kg/injection, schedule: Q01DX009 (ip), vehicle: saline with Tween-80, higher T/C = longer survival): 10 of 10 | survivor count [6]: 8 of 8 | survivor count (T/C endpoint: median tumor weight (est.), dose: 50.0 mg/kg/injection, schedule: Q01DX009 (ip), vehicle: Klucel (hydroxypropylcellulose) (HPC), higher T/C = larger tumour): 6 of 10 | survivor count (T/C endpoint: median tumor weight (est.), dose: 100.0 mg/kg/injection, schedule: Q01DX009 (ip), vehicle: Klucel (hydroxypropylcellulose) (HPC), higher T/C = larger tumour): 4 of 10 | survivor count (T/C endpoint: median tumor weight (est.), dose: 100.0 mg/kg/injection, schedule: Q01DX009 (ip), vehicle: saline with Tween-80, higher T/C = larger tumour): 4 of 10 | survivor count (T/C endpoint: median tumor weight (est.), dose: 200.0 mg/kg/injection, schedule: Q01DX009 (ip), vehicle: Klucel (hydroxypropylcellulose) (HPC), higher T/C = larger tumour): 3 of 10 | survivor count (T/C endpoint: median tumor weight (est.), dose: 400.0 mg/kg/injection, schedule: Q01DX009 (ip), vehicle: saline with Tween-80, higher T/C = larger tumour): 1 of 10

CN(C)CCOC(=O)COc1ccc(Cl)cc1
T/C (T/C endpoint: median survival time, dose: 300.0 mg/kg/injection, schedule: Q01DX005 (ip), vehicle: saline, higher T/C = longer survival): 136 % of control [6 of 8 alive]

C[C@@H]1C[C@@H]([C@@H](CC2CC(=O)NC(=O)C2)OC(=O)CC(=O)c2ccccc2)C(=O)[C@@H](C)C1
survivor count (T/C endpoint: mean tumor weight, dose: 5.0 mg/kg/injection, schedule: Q01DX011 (ip), vehicle: carboxymethylcellulose (CMC), higher T/C = larger tumour): 1 of 6 | survivor count (T/C endpoint: mean tumor weight, dose: 10.0 mg/kg/injection, schedule: Q01DX011 (ip), vehicle: carboxymethylcellulose (CMC), higher T/C = larger tumour): 2 of 6

CCCCCCCCCCCCCCCCCC(=O)NN
T/C (T/C endpoint: median survival time, dose: 25.0 mg/kg/injection, schedule: Q01DX009 (ip), vehicle: Klucel (hydroxypropylcellulose) (HPC), higher T/C = longer survival): 125 % of control | T/C [2]: 125 % of control [9 of 10 alive] | T/C [3]: 135 % of control

CNC(C)C(O)c1ccccc1 (configuration not stated)
T/C (T/C endpoint: mean tumor weight, dose: 100.0 mg/kg/injection, schedule: Q01DX011 (ip), vehicle: saline, evaluated on day 12, higher T/C = larger tumour): 142 % of control [4 of 6 alive] | survivor count (T/C endpoint: mean tumor weight, dose: 150.0 mg/kg/injection, schedule: Q01DX011 (ip), vehicle: saline, higher T/C = larger tumour): 3 of 6 | survivor count (T/C endpoint: mean tumor weight, dose: 225.0 mg/kg/injection, schedule: Q01DX011 (ip), vehicle: saline, higher T/C = larger tumour): 2 of 6

CCOC(N)=O
survivor count (T/C endpoint: mean tumor weight, dose: 250.0 mg/kg/injection, schedule: Q01DX011 (ip), vehicle: saline, higher T/C = larger tumour): 3 of 6 | survivor count (T/C endpoint: mean tumor weight, dose: 500.0 mg/kg/injection, schedule: Q01DX011 (ip), vehicle: saline, higher T/C = larger tumour): 0 of 6 | survivor count (T/C endpoint: mean tumor weight, dose: 800.0 mg/kg/injection, schedule: Q01DX011 (ip), vehicle: saline, higher T/C = larger tumour): 2 of 10 and 3 of 6 | survivor count (T/C endpoint: mean tumor weight, dose: 1000.0 mg/kg/injection, schedule: Q01DX011 (ip), vehicle: saline, higher T/C = larger tumour): 0 of 6

CCOC(=O)C(Br)CC (configuration not stated)
survivor count (T/C endpoint: mean tumor weight, dose: 222.0 mg/kg/injection, schedule: Q01DX011 (ip), vehicle: other, higher T/C = larger tumour): 2 of 6 | survivor count (T/C endpoint: mean tumor weight, dose: 333.0 mg/kg/injection, schedule: Q01DX011 (ip), vehicle: other, higher T/C = larger tumour): 0 of 6 | survivor count [1]: 0 of 6

Nc1nc(=S)c2[nH]cnc2[nH]1
survivor count (T/C endpoint: median survival time, dose: 2.0 mg/kg/injection, schedule: Q01DX009 (ip), vehicle: Klucel (hydroxypropylcellulose) (HPC), higher T/C = longer survival): 10 of 10 | survivor count (T/C endpoint: median survival time, dose: 4.0 mg/kg/injection, schedule: Q01DX009 (ip), vehicle: Klucel (hydroxypropylcellulose) (HPC), higher T/C = longer survival): 10 of 10 | survivor count (T/C endpoint: median survival time, dose: 8.0 mg/kg/injection, schedule: Q01DX009 (ip), vehicle: Klucel (hydroxypropylcellulose) (HPC), higher T/C = longer survival): 9 of 10 | survivor count (T/C endpoint: median survival time, dose: 16.0 mg/kg/injection, schedule: Q01DX009 (ip), vehicle: Klucel (hydroxypropylcellulose) (HPC), higher T/C = longer survival): 10 of 10

Oc1cc2c3c(c1)c1cc4c(cc1c[n+]3CC2)OCO4
T/C (T/C endpoint: median survival time, dose: 1.56 mg/kg/injection, schedule: Q01DX009 (ip), vehicle: water, higher T/C = longer survival): 131 % of control | survivor count (T/C endpoint: median survival time, dose: 50.0 mg/kg/injection, schedule: Q01DX009 (ip), vehicle: water, higher T/C = longer survival): 7 of 10

CCCCCC[N+](CCCCCC)(CCCCCC)CCCCCC
survivor count (T/C endpoint: median survival time, dose: 6.0 mg/kg/injection, schedule: Q01DX009 (ip), vehicle: Klucel (hydroxypropylcellulose) (HPC), higher T/C = longer survival): 9 of 10

O=C(O)C(O)C(O)C1[O][Sb][O]C1CO (configuration not stated)
survivor count [5]: 8 of 10 | survivor count [6]: 1 of 10
